PMC3924727
No constants are given. Whether binding was seen depends on the method and setting. For some of these results: Binding seen in cells or lysates may run through a third protein. Some binding calls cover weakened binding; strength is not graded here. Where a sequence is shown, tags or fusion partners need not be part of it.

T1: OsSPX3 (SPX3), yeast two-hybrid fusions AD-SPX3 and BD-SPX3 (rice (Oryza sativa)) (UniProt Q7XEY9)
T1 sequence: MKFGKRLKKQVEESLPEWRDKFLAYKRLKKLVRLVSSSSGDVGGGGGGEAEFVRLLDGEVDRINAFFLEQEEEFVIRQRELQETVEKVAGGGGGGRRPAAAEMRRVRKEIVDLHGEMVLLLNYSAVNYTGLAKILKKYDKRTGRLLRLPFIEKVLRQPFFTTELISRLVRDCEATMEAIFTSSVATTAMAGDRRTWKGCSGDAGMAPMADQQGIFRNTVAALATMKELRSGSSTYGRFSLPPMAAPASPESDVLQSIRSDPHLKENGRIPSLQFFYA

T2: SPX3-MYC / SPX3-FLAG (OsSPX3 expressed from 35S-SPX3-MYC or 35S-SPX3-FLAG) (rice (Oryza sativa)) (UniProt Q7XEY9)
T2 sequence: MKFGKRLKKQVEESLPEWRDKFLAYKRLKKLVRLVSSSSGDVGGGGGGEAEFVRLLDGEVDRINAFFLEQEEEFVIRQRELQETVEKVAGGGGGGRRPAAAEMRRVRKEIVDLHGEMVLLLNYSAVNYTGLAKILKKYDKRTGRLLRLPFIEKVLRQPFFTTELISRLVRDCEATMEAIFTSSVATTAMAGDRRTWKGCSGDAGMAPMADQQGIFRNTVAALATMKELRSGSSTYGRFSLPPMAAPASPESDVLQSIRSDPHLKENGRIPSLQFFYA

T3: SPX3-YFP^N / SPX3-YFP^C (OsSPX3 BiFC fusions) (rice (Oryza sativa)) (UniProt Q7XEY9)
T3 sequence: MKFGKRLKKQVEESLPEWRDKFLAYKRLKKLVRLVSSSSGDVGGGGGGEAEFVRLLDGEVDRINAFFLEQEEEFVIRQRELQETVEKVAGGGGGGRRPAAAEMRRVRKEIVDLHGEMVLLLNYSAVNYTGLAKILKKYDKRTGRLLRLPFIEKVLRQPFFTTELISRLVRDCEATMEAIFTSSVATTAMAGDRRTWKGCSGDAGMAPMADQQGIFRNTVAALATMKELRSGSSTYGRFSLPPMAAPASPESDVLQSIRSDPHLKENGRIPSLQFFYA

T4: SPX5-YFP^N / SPX5-YFP^C (OsSPX5 BiFC fusions) (rice (Oryza sativa)) (UniProt Q7Y0F6)
T4 sequence: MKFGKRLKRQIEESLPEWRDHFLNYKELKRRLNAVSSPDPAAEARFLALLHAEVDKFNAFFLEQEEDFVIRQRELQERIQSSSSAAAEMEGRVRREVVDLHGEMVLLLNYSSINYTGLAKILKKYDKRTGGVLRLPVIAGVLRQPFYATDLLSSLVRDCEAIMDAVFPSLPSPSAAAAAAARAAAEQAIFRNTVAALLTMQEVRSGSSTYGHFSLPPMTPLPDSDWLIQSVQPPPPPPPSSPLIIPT


Assays:
[1] = target: T1, OsSPX3 (SPX3), yeast two-hybrid fusions AD-SPX3 and BD-SPX3 (rice (Oryza sativa)); experiment: two-hybrid; Matchmaker GAL4 Two-Hybrid System3; AD and BD fusions cotransformed into yeast AH109, plated on SD/-Trp-Leu-His-Ade or SD/-Trp-Leu, 30 °C for 3-5 d
[2] = target: T2, SPX3-MYC / SPX3-FLAG (OsSPX3 expressed from 35S-SPX3-MYC or 35S-SPX3-FLAG) (rice (Oryza sativa)); experiment: co-IP; MYC and FLAG fusions transiently co-expressed in tobacco (N. benthamiana) leaves; lysates (50mM Tris, 50mM NaCl, 1mM EDTA, 1mM DTT) incubated 4h with anti-FLAG antibody-conjugated beads at 4 °C; immunoblot with anti-FLAG or anti-MYC
[3] = target: T3, SPX3-YFP^N / SPX3-YFP^C (OsSPX3 BiFC fusions) (rice (Oryza sativa)); experiment: split reporter; BiFC with YFP^N and YFP^C fusions transiently co-expressed in tobacco leaves; YFP fluorescence by confocal microscopy 48-72h after infiltration
[4] = target: T4, SPX5-YFP^N / SPX5-YFP^C (OsSPX5 BiFC fusions) (rice (Oryza sativa)); experiment: as above
[5] = target: OsSPX5 (SPX5), yeast two-hybrid fusions AD-SPX5 and BD-SPX5 (rice (Oryza sativa)) (UniProt Q7Y0F6); experiment: two-hybrid; Matchmaker GAL4 Two-Hybrid System3; AD and BD fusions cotransformed into yeast AH109, plated on SD/-Trp-Leu-His-Ade or SD/-Trp-Leu, 30 °C for 3-5 d
[6] = target: SPX5-MYC / SPX5-FLAG (OsSPX5 expressed from 35S-SPX5-MYC or 35S-SPX5-FLAG) (rice (Oryza sativa)) (UniProt Q7Y0F6); experiment: co-IP; MYC and FLAG fusions transiently co-expressed in tobacco (N. benthamiana) leaves; lysates (50mM Tris, 50mM NaCl, 1mM EDTA, 1mM DTT) incubated 4h with anti-FLAG antibody-conjugated beads at 4 °C; immunoblot with anti-FLAG or anti-MYC

| binding [1] | binding [2] | binding [3] | binding [4] | Binder | also measured |
| --- | --- | --- | --- | --- | --- |
| binds |  |  |  | OsSPX3 (SPX3), yeast two-hybrid fusions AD-SPX3 and BD-SPX3 (protein, UniProt Q7XEY9 1-277) MKFGKRLKKQVEESLPEWRDKFLAYKRLKKLVRLVSSSSGDVGGGGGGEAEFVRLLDGEVDRINAFFLEQEEEFVIRQRELQETVEKVAGGGGGGRRPAAAEMRRVRKEIVDLHGEMVLLLNYSAVNYTGLAKILKKYDKRTGRLLRLPFIEKVLRQPFFTTELISRLVRDCEATMEAIFTSSVATTAMAGDRRTWKGCSGDAGMAPMADQQGIFRNTVAALATMKELRSGSSTYGRFSLPPMAAPASPESDVLQSIRSDPHLKENGRIPSLQFFYA |  |
|  | binds |  |  | SPX3-MYC / SPX3-FLAG (OsSPX3 expressed from 35S-SPX3-MYC or 35S-SPX3-FLAG) (protein, UniProt Q7XEY9 1-277) MKFGKRLKKQVEESLPEWRDKFLAYKRLKKLVRLVSSSSGDVGGGGGGEAEFVRLLDGEVDRINAFFLEQEEEFVIRQRELQETVEKVAGGGGGGRRPAAAEMRRVRKEIVDLHGEMVLLLNYSAVNYTGLAKILKKYDKRTGRLLRLPFIEKVLRQPFFTTELISRLVRDCEATMEAIFTSSVATTAMAGDRRTWKGCSGDAGMAPMADQQGIFRNTVAALATMKELRSGSSTYGRFSLPPMAAPASPESDVLQSIRSDPHLKENGRIPSLQFFYA |  |
|  |  | binds | binds | SPX3-YFP^N / SPX3-YFP^C (OsSPX3 BiFC fusions) (protein, UniProt Q7XEY9 1-277) MKFGKRLKKQVEESLPEWRDKFLAYKRLKKLVRLVSSSSGDVGGGGGGEAEFVRLLDGEVDRINAFFLEQEEEFVIRQRELQETVEKVAGGGGGGRRPAAAEMRRVRKEIVDLHGEMVLLLNYSAVNYTGLAKILKKYDKRTGRLLRLPFIEKVLRQPFFTTELISRLVRDCEATMEAIFTSSVATTAMAGDRRTWKGCSGDAGMAPMADQQGIFRNTVAALATMKELRSGSSTYGRFSLPPMAAPASPESDVLQSIRSDPHLKENGRIPSLQFFYA |  |
| binds |  |  |  | OsSPX5 (SPX5), yeast two-hybrid fusions AD-SPX5 and BD-SPX5 (protein, UniProt Q7Y0F6 1-247) MKFGKRLKRQIEESLPEWRDHFLNYKELKRRLNAVSSPDPAAEARFLALLHAEVDKFNAFFLEQEEDFVIRQRELQERIQSSSSAAAEMEGRVRREVVDLHGEMVLLLNYSSINYTGLAKILKKYDKRTGGVLRLPVIAGVLRQPFYATDLLSSLVRDCEAIMDAVFPSLPSPSAAAAAAARAAAEQAIFRNTVAALLTMQEVRSGSSTYGHFSLPPMTPLPDSDWLIQSVQPPPPPPPSSPLIIPT | binding [5]: binds |
|  |  | binds | binds | SPX5-YFP^N / SPX5-YFP^C (OsSPX5 BiFC fusions) (protein, UniProt Q7Y0F6 1-247) MKFGKRLKRQIEESLPEWRDHFLNYKELKRRLNAVSSPDPAAEARFLALLHAEVDKFNAFFLEQEEDFVIRQRELQERIQSSSSAAAEMEGRVRREVVDLHGEMVLLLNYSSINYTGLAKILKKYDKRTGGVLRLPVIAGVLRQPFYATDLLSSLVRDCEAIMDAVFPSLPSPSAAAAAAARAAAEQAIFRNTVAALLTMQEVRSGSSTYGHFSLPPMTPLPDSDWLIQSVQPPPPPPPSSPLIIPT |  |
|  | binds |  |  | SPX5-MYC / SPX5-FLAG (OsSPX5 expressed from 35S-SPX5-MYC or 35S-SPX5-FLAG) (protein, UniProt Q7Y0F6 1-247) MKFGKRLKRQIEESLPEWRDHFLNYKELKRRLNAVSSPDPAAEARFLALLHAEVDKFNAFFLEQEEDFVIRQRELQERIQSSSSAAAEMEGRVRREVVDLHGEMVLLLNYSSINYTGLAKILKKYDKRTGGVLRLPVIAGVLRQPFYATDLLSSLVRDCEAIMDAVFPSLPSPSAAAAAAARAAAEQAIFRNTVAALLTMQEVRSGSSTYGHFSLPPMTPLPDSDWLIQSVQPPPPPPPSSPLIIPT | binding [6]: binds |
